Values from PubChem BioAssay AID743121 (NCATS, 2013).
This is an unselected part of about 26,000 reagents tested. Of all reagents, 167 (0.63%) are marked active. 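Calls are per gene from RSA p-values that are not deposited; an individual active-marked siRNA can sensitise only weakly.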 The numbers tell different reagents against one gene apart. Not all columns of the deposit are shown.

- Purpose: 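Genes whose silencing strengthens cell killing by camptothecin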 (primary screen)
- Cells: MDA-MB-231 cells, a human breast cancer line
- Knock-down reagent: single siRNA against human genes, 20 nM siRNA (0.8 pmol per well)
- Time to read-out: 120 h (drug added 48 h after transfection, read 72 h later)
- Challenge: camptothecin 20 nM (about EC30) for 72 h; vehicle 0.1% DMSO in parallel plates
- Read-out: 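CellTiter-Glo ATP signal, scaled to control siRNA as percent viability; sensitisation given as log2 of untreated divided by camptothecin-treated viability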
- Scale: log2 vehicle/camptothecin viability: higher = stronger sensitisation to camptothecin
- Rule for the call: 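Each gene scored by redundant siRNA activity (RSA) over its individual siRNA ratios; a gene is called active at p < 0.001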

PRKCQ (GeneID 5588) #1
- log2 vehicle/camptothecin viability: 0.0285
- outcome: inactive

PRKCQ (GeneID 5588) #2
- log2 vehicle/camptothecin viability: 0.167
- outcome: inactive

PRKCQ (GeneID 5588) #3
- log2 vehicle/camptothecin viability: -0.175
- outcome: inactive

PRKCQ (GeneID 5588) #4
- log2 vehicle/camptothecin viability: -0.29
- outcome: inactive

SERPINA9 (GeneID 327657) #1
- log2 vehicle/camptothecin viability: -0.101
- outcome: inactive

SERPINA9 (GeneID 327657) #2
- log2 vehicle/camptothecin viability: -0.417
- outcome: inactive

SERPINA9 (GeneID 327657) #3
- log2 vehicle/camptothecin viability: -0.386
- outcome: inactive

SERPINA9 (GeneID 327657) #4
- log2 vehicle/camptothecin viability: 0.104
- outcome: inactive

SRC (GeneID 6714) #1
- log2 vehicle/camptothecin viability: -0.152
- outcome: inactive

SRC (GeneID 6714) #2
- log2 vehicle/camptothecin viability: -0.0573
- outcome: inactive

SRC (GeneID 6714) #3
- log2 vehicle/camptothecin viability: 0.0508
- outcome: inactive

SRC (GeneID 6714) #4
- log2 vehicle/camptothecin viability: 0.204
- outcome: inactive

Individual results from the list.
Entry for SRC (GeneID 6714) #2 under “outcome”: inactive
SRC (GeneID 6714) #3, log2 vehicle/camptothecin viability = 0.0508

Additional results:
AFP (GeneID 174) #1
- log2 vehicle/camptothecin viability: -0.118
- outcome: inactive

AFP (GeneID 174) #2
- log2 vehicle/camptothecin viability: -0.309
- outcome: inactive

AFP (GeneID 174) #3
- log2 vehicle/camptothecin viability: -0.11
- outcome: inactive

ISG15 (GeneID 9636) #1
- log2 vehicle/camptothecin viability: -0.0841
- outcome: inactive

ISG15 (GeneID 9636) #2
- log2 vehicle/camptothecin viability: 0.0878
- outcome: inactive

ISG15 (GeneID 9636) #3
- log2 vehicle/camptothecin viability: -0.0133
- outcome: inactive

ISG15 (GeneID 9636) #4
- log2 vehicle/camptothecin viability: -0.409
- outcome: inactive

GPR37L1 (GeneID 9283) #1
- log2 vehicle/camptothecin viability: 0.0168
- outcome: inactive

GPR37L1 (GeneID 9283) #2
- log2 vehicle/camptothecin viability: 0.185
- outcome: inactive

GPR37L1 (GeneID 9283) #3
- log2 vehicle/camptothecin viability: -0.363
- outcome: inactive

GPR37L1 (GeneID 9283) #4
- log2 vehicle/camptothecin viability: -0.318
- outcome: inactive

PMS2P5 (GeneID 5383) #1
- log2 vehicle/camptothecin viability: -0.196
- outcome: inactive

PMS2P5 (GeneID 5383) #2
- log2 vehicle/camptothecin viability: -0.117
- outcome: inactive
